# Measured values from the supplement of paper PMC8728848.
# This is one part of the list.
# B1: Clec18A (Homo sapiens) (protein)
# chain: PFHTCDLRIDGDCFMVSSEADTYYRARMKCQRKGGVLAQIKRQKVQDILAFYLGRLETTNEVIDSDFETRNFWIGLTYKTAKDSFRWATGEHQAFTSFAFGQPDNHGFGNCVELQASAAFNWNDQRCKTRNRYICQ
# Assays:
# Experiment in all cases: glycan array binding signal (z-score within array); higher = stronger binding
# Settings in all cases: glycan notation: IUPAC condensed, linker removed
# [1] = target: Fuc(a1-2)Gal
# Method in brief: (§1)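 The binding signal is a Z-score computed within each array and averaged over linkers. Arrays of the same protein sequence at different concentrations or buffers were also averaged together. Data originate from 3228 arrays in the Consortium for Functional Glycomics database, kept only where the protein sequence was available.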
# [2] = target: Fuc(a1-2)Gal(b1-3)GalNAc
# Method in brief: as §1
# [3] = target: Fuc(a1-2)Gal(b1-3)GalNAc(a1-3)[Fuc(a1-2)]Gal(b1-4)Glc
# Method in brief: as §1
# [4] = target: Fuc(a1-2)Gal(b1-3)GalNAc(a1-3)[Fuc(a1-2)]Gal(b1-4)GlcNAc
# Method in brief: as §1
# [5] = target: Fuc(a1-2)Gal(b1-3)GalNAc(b1-3)Gal
# Method in brief: as §1
# [6] = target: Fuc(a1-2)Gal(b1-3)GalNAc(b1-3)Gal(a1-4)Gal(b1-4)Glc
# Method in brief: as §1
# [7] = target: Fuc(a1-2)Gal(b1-3)GalNAc(b1-4)[Neu5Ac(a2-3)]Gal(b1-4)Glc
# Method in brief: as §1
# [8] = target: Fuc(a1-2)Gal(b1-3)GlcNAc
# Method in brief: as §1
# [9] = target: Fuc(a1-2)Gal(b1-3)GlcNAc(b1-2)Man(a1-3)[Fuc(a1-2)Gal(b1-3)GlcNAc(b1-2)Man(a1-6)]Man(b1-4)GlcNAc(b1-4)GlcNAc
# Method in brief: as §1
# [10] = target: Fuc(a1-2)Gal(b1-3)GlcNAc(b1-2)Man(a1-3)[Fuc(a1-2)Gal(b1-3)GlcNAc(b1-2)Man(a1-6)]Man(b1-4)GlcNAc(b1-4)[Fuc(a1-6)]GlcNAc
# Method in brief: as §1
# [11] = target: Fuc(a1-2)Gal(b1-3)GlcNAc(b1-3)Gal(b1-4)Glc
# Method in brief: as §1
# [12] = target: Fuc(a1-2)Gal(b1-3)GlcNAc(b1-3)GalNAc
# Method in brief: as §1
# [13] = target: Fuc(a1-2)Gal(b1-3)GlcNAc(b1-3)[Fuc(a1-2)Gal(b1-3)GlcNAc(b1-6)]GalNAc
# Method in brief: as §1
# [14] = target: Fuc(a1-2)Gal(b1-3)GlcNAc(b1-3)[Gal(b1-4)GlcNAc(b1-6)]Gal(b1-4)Glc
# Method in brief: as §1
# [15] = target: Fuc(a1-2)Gal(b1-3)GlcNAc(b1-3)[Neu5Ac(a2-6)Gal(b1-4)GlcNAc(b1-6)]Gal(b1-4)Glc
# Method in brief: as §1
# [16] = target: Fuc(a1-2)Gal(b1-3)GlcNAc6S
# Method in brief: as §1
# [17] = target: Fuc(a1-2)Gal(b1-3)[Fuc(a1-4)]GlcNAc
# Method in brief: as §1
# [18] = target: Fuc(a1-2)Gal(b1-3)[Fuc(a1-4)]GlcNAc(b1-2)Man(a1-3)[Fuc(a1-2)Gal(b1-3)[Fuc(a1-4)]GlcNAc(b1-2)Man(a1-3)]Man(b1-4)GlcNAc(b1-4)GlcNAc
# Method in brief: as §1
# [19] = target: Fuc(a1-2)Gal(b1-3)[Fuc(a1-4)]GlcNAc(b1-2)Man(a1-3)[Fuc(a1-2)Gal(b1-3)[Fuc(a1-4)]GlcNAc(b1-2)Man(a1-6)]Man(b1-4)GlcNAc(b1-4)[Fuc(a1-6)]GlcNAc(b1-4)[Fuc(a1-6)]GlcNAc
# Method in brief: as §1
# [20] = target: Fuc(a1-2)Gal(b1-3)[Fuc(a1-4)]GlcNAc(b1-3)[Fuc(a1-3)[Gal(b1-4)]GlcNAc(b1-6)]Gal(b1-4)Glc
# Method in brief: as §1
# [21] = target: Fuc(a1-2)Gal(b1-3)[Fuc(a1-4)]GlcNAc(b1-3)[Gal(b1-4)GlcNAc(b1-6)]Gal(b1-4)Glc
# Method in brief: as §1
# [22] = target: Fuc(a1-2)Gal(b1-4)Glc
# Method in brief: as §1
# [23] = target: Fuc(a1-2)Gal(b1-4)Glc6S
# Method in brief: as §1
# [24] = target: Fuc(a1-2)Gal(b1-4)GlcNAc
# Method in brief: as §1
# [25] = target: Fuc(a1-2)Gal(b1-4)GlcNAc(b1-2)Man
# Method in brief: as §1
# [26] = target: Fuc(a1-2)Gal(b1-4)GlcNAc(b1-2)Man(a1-3)[Fuc(a1-2)Gal(b1-4)GlcNAc(b1-2)Man(a1-6)]Man(b1-4)GlcNAc(b1-4)GlcNAc
# Method in brief: as §1
# [27] = target: Fuc(a1-2)Gal(b1-4)GlcNAc(b1-2)Man(a1-3)[Fuc(a1-2)Gal(b1-4)GlcNAc(b1-2)Man(a1-6)]Man(b1-4)GlcNAc(b1-4)[Fuc(a1-6)]GlcNAc
# Method in brief: as §1
# [28] = target: Fuc(a1-2)Gal(b1-4)GlcNAc(b1-2)[Fuc(a1-2)Gal(b1-4)GlcNAc(b1-4)]Man(a1-3)[Fuc(a1-2)Gal(b1-4)GlcNAc(b1-2)Man(a1-6)]Man(b1-4)GlcNAc(b1-4)GlcNAc
# Method in brief: as §1
# [29] = target: Fuc(a1-2)Gal(b1-4)GlcNAc(b1-3)Gal(b1-4)GlcNAc
# Method in brief: as §1
# [30] = target: Fuc(a1-2)Gal(b1-4)GlcNAc(b1-3)Gal(b1-4)GlcNAc(b1-2)Man(a1-3)[Fuc(a1-2)Gal(b1-4)GlcNAc(b1-3)Gal(b1-4)GlcNAc(b1-2)Man(a1-6)]Man(b1-4)GlcNAc(b1-4)GlcNAc
# Method in brief: as §1
binder,measurement,setting,value
B1,glycan array binding signal (z-score),[1],-0.536
same,glycan array binding signal (z-score),[2],0.01
same,glycan array binding signal (z-score),[3],-0.752
same,glycan array binding signal (z-score),[4],-0.318
same,glycan array binding signal (z-score),[5],-0.652
same,glycan array binding signal (z-score),[6],-0.293
same,glycan array binding signal (z-score),[7],-0.807
same,glycan array binding signal (z-score),[8],-0.567
same,glycan array binding signal (z-score),[9],0.82
same,glycan array binding signal (z-score),[10],-0.73
same,glycan array binding signal (z-score),[11],-0.434
same,glycan array binding signal (z-score),[12],-0.095
same,glycan array binding signal (z-score),[13],0.898
same,glycan array binding signal (z-score),[14],-0.342
same,glycan array binding signal (z-score),[15],-0.062
same,glycan array binding signal (z-score),[16],-0.308
same,glycan array binding signal (z-score),[17],-0.979
same,glycan array binding signal (z-score),[18],-0.005
same,glycan array binding signal (z-score),[19],-0.249
same,glycan array binding signal (z-score),[20],2.41
same,glycan array binding signal (z-score),[21],-0.169
same,glycan array binding signal (z-score),[22],-0.638
same,glycan array binding signal (z-score),[23],-0.25
same,glycan array binding signal (z-score),[24],-0.535
same,glycan array binding signal (z-score),[25],-0.644
same,glycan array binding signal (z-score),[26],-0.132
same,glycan array binding signal (z-score),[27],-0.511
same,glycan array binding signal (z-score),[28],1.4
same,glycan array binding signal (z-score),[29],0.948
same,glycan array binding signal (z-score),[30],-0.412
